Experimental data reported in paper PMC11354310, “The Discovery of a Specific CKIP-1 Ligand for the Potential Treatment of Disuse Osteoporosis” (International Journal of Molecular Sciences, 2024).
Results are given in words; binding and its absence hold for the method and conditions named. In cells and extracts the contact can be indirect. Some entries that bind do so weakly or less than the wild type.

Chains of the proteins cited; added tags and fusions are not shown. Lines headed by an entry give the natural chain unless they say otherwise; changes in a name come on top. A line that says so, or that is headed by a name, gives the form on record, which may keep a tag or linker. Residues count along the entry.
UniProt Q53GL0: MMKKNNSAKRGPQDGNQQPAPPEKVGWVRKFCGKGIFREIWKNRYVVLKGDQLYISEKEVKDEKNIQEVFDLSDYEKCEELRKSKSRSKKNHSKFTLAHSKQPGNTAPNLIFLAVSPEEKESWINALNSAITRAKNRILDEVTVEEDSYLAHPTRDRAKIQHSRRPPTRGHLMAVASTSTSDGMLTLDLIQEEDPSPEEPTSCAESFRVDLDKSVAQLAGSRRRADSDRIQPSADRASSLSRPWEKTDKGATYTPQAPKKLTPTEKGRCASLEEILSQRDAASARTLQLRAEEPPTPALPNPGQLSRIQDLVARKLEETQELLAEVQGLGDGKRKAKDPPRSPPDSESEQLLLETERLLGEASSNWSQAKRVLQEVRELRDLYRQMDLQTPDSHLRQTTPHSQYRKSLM
Flag-tagged CKIP-1 PH (22–136): residues 22-136 of Q53GL0
Flag-tagged CKIP-1 ΔPH (1–22 and 136–409) (Q53GL0, form named): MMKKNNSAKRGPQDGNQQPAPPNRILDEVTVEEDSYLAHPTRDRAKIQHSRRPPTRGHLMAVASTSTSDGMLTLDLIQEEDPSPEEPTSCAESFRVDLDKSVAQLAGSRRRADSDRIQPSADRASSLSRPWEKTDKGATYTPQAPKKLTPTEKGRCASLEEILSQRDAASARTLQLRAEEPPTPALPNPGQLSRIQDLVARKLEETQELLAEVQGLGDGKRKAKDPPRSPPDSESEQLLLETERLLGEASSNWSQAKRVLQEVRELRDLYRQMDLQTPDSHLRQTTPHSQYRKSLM
UniProt Q9JIY0: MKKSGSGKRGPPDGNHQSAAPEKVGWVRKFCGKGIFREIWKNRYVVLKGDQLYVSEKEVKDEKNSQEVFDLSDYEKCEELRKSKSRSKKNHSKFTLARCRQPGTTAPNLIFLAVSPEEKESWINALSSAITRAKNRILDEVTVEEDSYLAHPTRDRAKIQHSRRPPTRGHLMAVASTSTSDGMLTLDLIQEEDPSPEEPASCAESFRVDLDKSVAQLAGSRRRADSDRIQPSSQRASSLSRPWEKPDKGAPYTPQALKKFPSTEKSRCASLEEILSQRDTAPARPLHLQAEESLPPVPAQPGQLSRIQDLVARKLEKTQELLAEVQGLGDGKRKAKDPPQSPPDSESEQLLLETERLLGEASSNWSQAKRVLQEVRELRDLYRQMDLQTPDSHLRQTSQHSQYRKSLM
UniProt P40337: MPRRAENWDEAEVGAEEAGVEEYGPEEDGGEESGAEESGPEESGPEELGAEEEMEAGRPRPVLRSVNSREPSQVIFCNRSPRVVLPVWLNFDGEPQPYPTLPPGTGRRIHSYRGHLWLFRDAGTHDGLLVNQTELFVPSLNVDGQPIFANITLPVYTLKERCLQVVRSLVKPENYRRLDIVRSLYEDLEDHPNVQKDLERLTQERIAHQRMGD
UniProt P40338: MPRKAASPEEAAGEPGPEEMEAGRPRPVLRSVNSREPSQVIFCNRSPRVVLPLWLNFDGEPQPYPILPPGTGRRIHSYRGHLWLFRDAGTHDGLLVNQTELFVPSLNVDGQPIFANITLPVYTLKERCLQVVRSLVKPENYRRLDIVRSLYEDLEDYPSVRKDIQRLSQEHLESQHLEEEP

Key:
[1] = target: Flag-tagged CKIP-1 (casein kinase 2 interacting protein-1), wild type (human) (UniProt Q53GL0); test: co-IP; HEK293T cells transfected for 24 h with Myc-tagged VHL alone or together with Flag-tagged CKIP-1 (WT or constructs); HEPES lysis buffer (20 mM HEPES pH 7.2, 50 mM NaCl, 0.5% Triton X-100); immunoprecipitated with Flag antibody, immunoblot
[2] = target: Flag-tagged CKIP-1 PH (22–136) (human) (UniProt Q53GL0); test: as above
[3] = target: Flag-tagged CKIP-1 ΔPH (1–22 and 136–409) (human) (UniProt Q53GL0); test: as above
[4] = target: CKIP-1, endogenous in BMSCs (UniProt Q9JIY0); test: co-IP; BMSC whole-cell lysates immunoprecipitated with control IgG or CKIP-1 antibody, immunoblot; endogenous proteins

Substance	binding [1]	binding [2]	binding [3]	binding [4]
Myc-tagged VHL (von Hippel–Lindau), wild type (from UniProt P40337 1-213)	binds	binds	binds	–
VHL, endogenous in BMSCs (from UniProt P40338 1-181)	–	–	–	binds
